Measured values: PubChem BioAssay AID624297 (National Center for Advancing Translational Sciences (NCATS), 2012)
Out of some 340,000 compounds screened, about 6,200 (1.8%) were called active. This list was built around the results that the source calls inconclusive (neither active nor inactive); the mix of calls is not that of the screen. The call rests on the fitted dose curve; in most records, active means well fitted activation curve with a large enough effect; inconclusive means small, poorly fitted or top-dose-only effect; inactive means no such curve, though single readings can be large or run the other way. Potencies beside an inconclusive call are fits to weak or partial responses and may not hold up.

Assay: A quantitative high throughput screen for small molecules that induce DNA re-replication in SW480 colon adenocarcinoma cells. Further: nearly all actives have a fitted effect of over 55% in size. On re-replication activation: % of control where 0% means no effect.
Details: Hoechst DNA content imaging, 48 h; re-replication activation: at 46.1 µM (top of the series) unless noted
In short: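 Per well, 250 cells were exposed to pinned compound for 48 hr. Nuclear DNA was visualised with Hoechst (40 min, 37 C) and total object intensity recorded by fluorescence scanning.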
Potency means the concentration at half of the fitted maximal effect.

SMILES	Potency	re-replication activation
CCc1cccc(C)c1NC(=O)COC(=O)c1c2c(nc3ccccc13)/C(=C\c1cccs1)CCC2	active: 18.4 µM	–
N#CCCn1cc(C(=O)N2CCOCC2)c(-c2ccc3c(c2)OCCO3)n1	–	inactive: 2.87% [at 1.84 µM]
COc1ccc(CNC(=O)C(c2ccncc2)N(C(=O)Cc2cccs2)c2ccc(C)cc2)cc1 (stereo not drawn)	–	inactive: -0.957%
C=C1CC(COc2cc(=O)oc3ccccc23)(c2ccccc2)OC1=O (stereo not drawn)	–	inactive: 28%
O=C(Nc1ccc(O)cc1)c1c(O)c2c([nH]c1=O)CCCC2	inconclusive: 0.58 µM [activator, partial curve, poor fit]	–
CCc1nc(SCC(=O)Nc2cc(C)on2)c2c(C)c(C)sc2n1	–	inactive: -2.16%
Cn1ccsc1=NC(=O)c1ccc(OC(F)(F)F)cc1	–	inactive: 0.111%
O=C(Nc1cc2c(=O)n(-c3ccc(Oc4ccccc4)cc3)ccc2oc1=O)c1ccccc1	inconclusive: 6.51 µM [activator, full curve, poor fit]	–
Cc1ccc(C)c(NS(=O)(=O)c2ccc3c(c2)Cc2cc(S(=O)(=O)Nc4cc(C)ccc4C)ccc2-3)c1	inconclusive: 23.1 µM [activator, single point]	–
NCCCCCc1nnc(SC/C=C/c2ccccc2)o1	inconclusive: 32.6 µM [activator, single point]	–
CC(=C/c1ccccc1)/C=N/Nc1nc(N2CCCCC2)nc(N2CCCCC2)n1	–	inactive: -7.11%
O=C(N/N=C/c1ccccc1O)c1ccc2c(c1)OCO2	inconclusive: 1.64 µM [activator, partial curve, poor fit]	–
c1ccc(-c2nnc(-c3c[nH]c4ccccc34)nc2-c2ccccc2)cc1	–	inactive: -3.23%
Cc1cnc(C)c(N2CCN(Cc3nc(-c4ccc(C)o4)oc3C)CC2)n1	inconclusive: 29.1 µM [activator, partial curve, poor fit]	–
CC(C)C[C@H]1CNC(=O)C(=O)N1CC1CCN(CCc2ccc(-c3ccccc3)cc2)CC1	–	inactive: -29.7%
Cc1ccc(CN(C)C(=O)c2ccc(S(=O)(=O)N(C)c3ccccc3)cc2)o1	active: 8.2 µM	–
CC(C)(C)OC(=O)NC(CNCc1ccccc1)Cc1ccccc1 (stereo not drawn)	inconclusive: 0.0052 µM [activator, full curve, poor fit]	–
O=C(NCCCn1ccnc1)c1cc(-c2ccccc2)on1	active: 7.31 µM	–
CC(C)CN(C(=O)CN(C)C(=O)c1ccco1)c1c(N)n(CC(C)C)c(=O)[nH]c1=O	inconclusive: 0.146 µM [activator, full curve, poor fit]	–
CC(NC(=O)c1cc2c(=O)n3ccccc3nc2n(CC2CCCO2)c1=N)c1ccccc1 (stereo not drawn)	active: 6.51 µM	–
Nc1ncnc2c1ncn2[C@@H]1O[C@H](CNCc2cccn2-c2nccs2)[C@@H](O)[C@H]1O	inconclusive: 23.1 µM [activator, single point]	–
O=C(CNc1cccc2ccccc12)N/N=C/c1ccc([N+](=O)[O-])o1	inconclusive: 29.1 µM [activator, single point]	–
CCCC[n+]1ccn(-c2nc3c([N+](=O)[O-])cccc3n2C)c1	–	inactive: 2.34%
CCOC(=O)NC(=S)c1ccc[nH]1	–	inactive: -1.72%
CCOC(=O)c1c(NC(NC(=O)C(C)C)C(Cl)(Cl)Cl)sc2c1CCC2 (stereo not drawn)	inconclusive: 5.8 µM [activator, full curve, poor fit]	–

SMILES	Potency	re-replication activation
CCCN(CCC)Cc1c(C(=O)N/N=C/c2c[nH]c3ccccc23)nnn1-c1nonc1N	inconclusive: 29.1 µM [activator, single point]	–
CC1CN(C(=O)COC(=O)Cc2c(Cl)cccc2Cl)CC(C)O1 (stereo not drawn)	–	inactive: 4.41%
Cc1c(C(=O)NCCSCc2cccc(C(F)(F)F)c2)cnn1-c1ccc(Cl)cc1	–	inactive: -150%
O=S(=O)(c1cccc(C(F)(F)F)c1)N1CCCC1c1cccnc1 (stereo not drawn)	inconclusive: 11.6 µM [activator, single point]	–
O=C(CCc1nnc(Cc2ccc3c(c2)OCO3)o1)NC(c1ccccn1)C(F)(F)F (stereo not drawn)	–	inactive: -7.97%
COc1ccc(N2CCN(C(=O)Cn3nnc(-c4ccc(OC)c(OC)c4)n3)CC2)cc1	inconclusive: 29.1 µM [activator, single point]	–
CCC(C)NC(=O)C1(N2C(=O)c3ccccc3C2=O)CCCC1 (stereo not drawn)	–	inactive: 1.1%
O=C(NC1CC2CCC(C1)N2Cc1ccccc1)c1ccccc1Br (stereo not drawn)	–	inactive: 5.69%
O=C(Nc1nnc(C2=COCCO2)o1)c1ccc(F)cc1	inconclusive: 29.1 µM [activator, single point]	–
N#Cc1cccc2c1-c1ccccc1/C2=N/NC(N)=O	inconclusive: 20.6 µM [activator, single point]	–
O=C(C1=C[C@H](c2ccccc2)C[C@H](OCCCCO)O1)N1CCOCC1	inconclusive: 0.146 µM [activator, full curve, poor fit]	–
COc1cc(S(=O)(=O)N2CCN=C2c2ccccc2)ccc1F	inconclusive: 20.6 µM [activator, single point]	–
CC(C)(C)c1ccc(CN2C3=NCCCN3c3ccccc32)cc1	inconclusive: 18.4 µM [activator, single point]	–
COc1ccc(-c2cn[nH]c2-c2ccc(OCc3ccc(F)cc3)cc2O)cc1OC	active: 18.4 µM	–
CC1CN(S(=O)(=O)c2cccc(C(=O)Nc3ccc(S(=O)(=O)NC4=NCCCCC4)cc3)c2)CC(C)O1 (stereo not drawn)	–	inactive: -0.266%
CCN1CCCC(CO)(Cc2ccccc2)C1 (stereo not drawn)	–	inactive: -3.89%
O=C(CSc1ccc(Cl)cc1)c1ccco1	–	inactive: -0.205%
O=C(C1CCN(CCCc2ccccc2)CC1)N1CCCCC1	–	inactive: -2.1%
Cc1nn(C)c(Cl)c1S(=O)(=O)N1CCC(CO)(CCc2ccccc2)CC1	–	inactive: -5.66%
COc1cc(C(=O)NC2CCN(C)CC2)ccc1Nc1ncc2c(n1)N(C1CCC(O)CC1)CCC(=O)N2C (stereo not drawn)	–	inactive: -0.0388%
Cc1ccc(NS(=O)(=O)c2ccc(OCC(=O)NCc3cccnc3)cc2)cc1	inconclusive: 25.9 µM [activator, single point]	–
COc1ccc(C(=O)NC(=S)Nc2cccc(Cl)c2N2CCOCC2)cc1[N+](=O)[O-]	active: 7.31 µM	–
O=C(NNC(=O)c1ccccn1)c1cccc([N+](=O)[O-])c1	inconclusive: 10.3 µM [activator, partial curve, poor fit]	–
COc1cc(COCC(O)CN2CCN(CCN3C(=O)c4cccc5cccc(c45)C3=O)CC2)cc(OC)c1OC (stereo not drawn)	inconclusive: 23.1 µM [activator, partial curve, poor fit]	–
O=C(N/N=C/c1ccc(-c2cccc(C(F)(F)F)c2)o1)c1cccc(F)c1	inconclusive: 35.5 µM [activator, single point]	–

SMILES	Potency	re-replication activation
NS(=O)(=O)c1ccc(NC(=O)CCCCCN2C(=O)c3ccccc3C2=O)cc1	inconclusive: 29.1 µM [activator, single point]	–
Nc1nonc1-n1nnc(C(=O)N/N=C/c2ccc(Cl)cc2Cl)c1CN1CCCC1	active: 3.66 µM	–
O=C(N/N=C/c1ccc(N2CCOCC2)cc1)c1ccc(O)cc1	–	inactive: -21.8%
COc1cccc(CNC(=O)c2cc(COc3c(F)cccc3F)on2)c1	–	inactive: -9.24%
O=C1OCCN1C(=O)[C@H]1[C@H](c2ccccc2)C(c2cccc(Cl)c2)=NN1c1ccc(Br)cc1	active: 2.06 µM	–
O=C(NCc1ccncc1)c1cn(-c2ccccc2)nc1-c1cccnc1	–	inactive: -1.45%
COc1ccc(-c2csc(NC(=S)NC(=O)/C=C/c3ccco3)n2)cc1Br	inconclusive: 5.8 µM [activator, full curve, poor fit]	–
CCCc1cc(C(=O)N2CCCC(CO)(CCCc3ccccc3)C2)n(C)n1 (stereo not drawn)	inconclusive: 29.1 µM [activator, partial curve, poor fit]	–
O=C(O)CCSCC(=O)c1ccc2c(c1)OCCO2	inconclusive: 29.1 µM [activator, single point]	–
CCCN(CCC)CCCNC(=O)CC(C(=O)N1CCc2ccccc21)n1ccnc1 (stereo not drawn)	–	inactive: -2.89%
Cc1ccc2nc(NCC(N)=O)nc(-c3ccccc3)c2c1	active: 18.4 µM	–
CCn1c(=O)c2cc(C(=O)NCCN(C)C)sc2c2ccccc21	inconclusive: 25.9 µM [activator, single point]	–
CC12CCC(C(=O)Nc3c(Cl)cccc3Cl)(C(Br)C1=O)C2(C)C (stereo not drawn)	inconclusive: 25.9 µM [activator, partial curve, poor fit]	–
CCCCNC(=O)c1cc(-c2ccc3c(c2)OCO3)on1	inconclusive: 10.3 µM [activator, partial curve]	–
CSc1nc2sc3c(c2c(=O)[nH]1)CCc1ccccc1-3	inconclusive: 32.6 µM [activator, partial curve, poor fit]	–
COc1ccc(/C(O)=C2/C(=O)C(=O)N(CCN(C)C)C2c2cccnc2)cc1OC (stereo not drawn)	inconclusive: 0.517 µM [activator, full curve, poor fit]	–
CCOC(=O)C1(Cc2ccccc2C)CCCN(C(=O)c2ccc3nccnc3c2)C1 (stereo not drawn)	–	inactive: 1.5%
O=C(Nc1ccc(Cl)cc1)C1=Cc2cc(Cl)ccc2OC1	–	inactive: -1.07% [at 9.22 µM]
O=C1CNC(=O)/C1=C/c1ccccc1	–	inactive: 14.3%
O=C(c1ccc([N+](=O)[O-])cc1)N1CCc2ccccc21	–	inactive: 2%
CC(=O)c1cccc(NC(=O)C2C(c3ccccc3)C2(Cl)Cl)c1 (stereo not drawn)	inconclusive: 29.1 µM [activator, single point]	–
CC1(C)NC(=O)N(CCCCOc2ccc(Cl)cc2C=O)C1=O	inconclusive: 20.6 µM [activator, single point]	–
COc1ccc(C)cc1S(=O)(=O)N(CC(=O)Nc1cc([N+](=O)[O-])ccc1C)c1ccc(C)c(C)c1	inconclusive: 3.66 µM [activator, single point]	–

Whole records from above. Values in the order: Potency | re-replication activation
COc1ccc(/C(O)=C2/C(=O)C(=O)N(CCN(C)C)C2c2cccnc2)cc1OC (stereo not drawn) as listed: inconclusive: 0.517 µM [activator, full curve, poor fit] | –
COc1cc(S(=O)(=O)N2CCN=C2c2ccccc2)ccc1F as listed: inconclusive: 20.6 µM [activator, single point] | –

No new results follow: two of the compounds above.
SMILES	Potency	re-replication activation
O=C(NCc1ccncc1)c1cn(-c2ccccc2)nc1-c1cccnc1	–	inactive: -1.45%
COc1ccc(-c2csc(NC(=S)NC(=O)/C=C/c3ccco3)n2)cc1Br	inconclusive: 5.8 µM [activator, full curve, poor fit]	–
